This test has as its target RagD (Rag GTPase D), wild type (human) (UniProt Q9NQL2). In words: co-IP.

Amino acid sequences for entries named in this document (tags omitted).
UniProt Q9NQL2: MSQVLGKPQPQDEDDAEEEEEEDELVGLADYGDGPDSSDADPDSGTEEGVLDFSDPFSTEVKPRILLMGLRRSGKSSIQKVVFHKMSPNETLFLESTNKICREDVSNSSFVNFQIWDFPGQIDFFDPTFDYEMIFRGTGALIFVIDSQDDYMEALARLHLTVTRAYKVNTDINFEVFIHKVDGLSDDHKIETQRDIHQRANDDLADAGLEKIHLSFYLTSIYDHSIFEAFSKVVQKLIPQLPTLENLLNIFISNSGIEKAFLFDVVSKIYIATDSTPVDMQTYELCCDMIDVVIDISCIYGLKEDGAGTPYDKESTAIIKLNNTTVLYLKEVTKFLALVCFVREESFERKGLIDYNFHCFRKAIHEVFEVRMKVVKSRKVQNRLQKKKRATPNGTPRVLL
UniProt Q7L523: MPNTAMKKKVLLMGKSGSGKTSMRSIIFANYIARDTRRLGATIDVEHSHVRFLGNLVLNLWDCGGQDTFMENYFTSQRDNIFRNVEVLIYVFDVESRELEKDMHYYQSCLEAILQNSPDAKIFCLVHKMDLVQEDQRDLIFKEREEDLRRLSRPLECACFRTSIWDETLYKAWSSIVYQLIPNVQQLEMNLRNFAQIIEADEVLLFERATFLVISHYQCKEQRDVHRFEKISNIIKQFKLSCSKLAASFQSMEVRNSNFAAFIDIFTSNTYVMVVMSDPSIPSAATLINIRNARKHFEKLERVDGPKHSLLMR

Results are given in words; binding and its absence hold for the method and conditions named. Binding seen in cells or lysates may run through a third protein. Some binding calls cover weakened binding; strength is not graded here.

Take RagA (from UniProt Q7L523 1-313): the binding result is listed as “binds”.

Values taken from paper doi:10.1101/2021.03.11.434334.
